No constants are given. Whether binding was seen depends on the method and setting. Binding seen in cells or lysates may run through a third protein. Some binding calls cover weakened binding; strength is not graded here.
Target: telomerase reverse transcriptase (human (endogenous in PLC/PRF5)) (UniProt O14746)
Experiment: co-IP; soluble protein samples of PLC/PRF5 cells, pre-incubated with protein G/A-agarose at 4°C overnight, then incubated with protein G/A-agarose pre-coupled to primary antibodies for at least 3 h; washed, boiled, western blot

Chains of the proteins cited; added tags and fusions are not shown.
UniProt O14746: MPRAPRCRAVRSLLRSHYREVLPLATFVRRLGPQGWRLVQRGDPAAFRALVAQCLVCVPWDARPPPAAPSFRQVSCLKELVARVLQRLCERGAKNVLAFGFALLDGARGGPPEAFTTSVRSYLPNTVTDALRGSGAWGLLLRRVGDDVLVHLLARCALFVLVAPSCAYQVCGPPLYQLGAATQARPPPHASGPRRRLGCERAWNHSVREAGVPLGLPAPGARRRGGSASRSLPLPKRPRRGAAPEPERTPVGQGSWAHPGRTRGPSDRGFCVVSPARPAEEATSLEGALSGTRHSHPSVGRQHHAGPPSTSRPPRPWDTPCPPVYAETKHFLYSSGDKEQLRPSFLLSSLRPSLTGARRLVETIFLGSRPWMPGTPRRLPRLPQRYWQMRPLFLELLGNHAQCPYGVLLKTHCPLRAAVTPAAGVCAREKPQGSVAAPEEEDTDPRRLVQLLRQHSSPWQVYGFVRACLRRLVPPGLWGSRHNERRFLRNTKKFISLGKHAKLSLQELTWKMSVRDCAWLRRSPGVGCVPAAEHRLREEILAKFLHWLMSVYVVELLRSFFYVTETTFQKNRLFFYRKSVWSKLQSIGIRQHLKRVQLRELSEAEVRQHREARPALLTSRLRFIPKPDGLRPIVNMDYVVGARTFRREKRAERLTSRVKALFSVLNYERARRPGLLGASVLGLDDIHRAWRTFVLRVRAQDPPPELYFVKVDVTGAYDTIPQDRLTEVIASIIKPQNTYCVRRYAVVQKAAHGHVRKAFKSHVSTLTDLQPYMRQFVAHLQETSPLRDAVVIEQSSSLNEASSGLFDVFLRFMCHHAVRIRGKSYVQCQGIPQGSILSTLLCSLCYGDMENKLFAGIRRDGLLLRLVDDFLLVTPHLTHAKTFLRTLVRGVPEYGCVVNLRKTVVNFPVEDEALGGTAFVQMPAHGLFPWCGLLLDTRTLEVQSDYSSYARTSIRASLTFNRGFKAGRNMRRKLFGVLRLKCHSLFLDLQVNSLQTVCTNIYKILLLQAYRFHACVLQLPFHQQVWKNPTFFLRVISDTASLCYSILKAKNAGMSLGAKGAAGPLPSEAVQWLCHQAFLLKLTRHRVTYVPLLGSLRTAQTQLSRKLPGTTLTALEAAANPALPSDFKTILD

B1: NHP2 (protein, UniProt Q9NX24 1-153)
chain: MTKIKADPDGPEAQAEACSGERTYQELLVNQNPIAQPLASRRLTRKLYKCIKKAVKQKQIRRGVKEVQKFVNKGEKGIMVLAGDTLPIEVYCHLPVMCEDRNLPYVYIPSKTDLGAAAGSKRPTCVIMVKPHEEYQEAYDECLEEVQSLPLPL
binding: binds

Reference: PMC7732313
